Measurements: PubChem BioAssay AID2733 (National Center for Advancing Translational Sciences (NCATS), 2010)
Inconclusive results, whose numbers are uncertain, are shown with a selection of clear calls. A potency beside an inconclusive call is a rough fit, not a confirmed value. Calls of active or inactive are those of the source. Calls follow the shape of the dose curve; as a rule, active = well fitted inhibition curve with a large enough effect; inconclusive = small, poorly fitted or top-dose-only effect; inactive = flat fitted curve, though single readings scatter.

Test: High Content Assay for Compounds that inhibit the Assembly of the Perinucleolar Compartment: PC3M Cytotoxicity
Settings: PC3M cells, ATPLite luminescence viability, 24 h; series mostly up to 46.1 µM
Summary of the method: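 PC3M-GFP cells (2000/well) adhered 4 h, then given 23 nl of compound stock in duplicate. After 24 h at 37 C, ATP measured by ATPLite luminescence; camptothecin positive control, DMSO negative.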

Structure (SMILES)	Potency
Cc1cc(C(=O)N/N=C/c2cc(Br)cc(Br)c2OC(=O)c2ccccc2)n[nH]1	inconclusive: 15.8 µM [inhibitor, full curve]
CC(=O)c1c(C)cc(C)c(CSc2nc(C)cc(=O)[nH]2)c1C	inconclusive: 28.2 µM [inhibitor, single point]
CCN=c1scc(-c2ccccc2)n1/N=C/c1ccccn1	active: 10 µM
CCN(CC)c1ccc(N=Cc2ccccc2[N+](=O)[O-])cc1	inactive
Cc1cccc(C)c1Nc1c(-c2ccc(N3CCOCC3)cc2)nc2ncccn12	inactive
